Laboratory results published in patent publication US20250250350A1.
No constants are given. Whether binding was seen depends on the method and setting. Some binding calls cover weakened binding; strength is not graded here.

Sequences of proteins named here, by UniProt entry; tags and fusion partners are left off. Residues count along the entry.
UniProt P10696, residues 20-503: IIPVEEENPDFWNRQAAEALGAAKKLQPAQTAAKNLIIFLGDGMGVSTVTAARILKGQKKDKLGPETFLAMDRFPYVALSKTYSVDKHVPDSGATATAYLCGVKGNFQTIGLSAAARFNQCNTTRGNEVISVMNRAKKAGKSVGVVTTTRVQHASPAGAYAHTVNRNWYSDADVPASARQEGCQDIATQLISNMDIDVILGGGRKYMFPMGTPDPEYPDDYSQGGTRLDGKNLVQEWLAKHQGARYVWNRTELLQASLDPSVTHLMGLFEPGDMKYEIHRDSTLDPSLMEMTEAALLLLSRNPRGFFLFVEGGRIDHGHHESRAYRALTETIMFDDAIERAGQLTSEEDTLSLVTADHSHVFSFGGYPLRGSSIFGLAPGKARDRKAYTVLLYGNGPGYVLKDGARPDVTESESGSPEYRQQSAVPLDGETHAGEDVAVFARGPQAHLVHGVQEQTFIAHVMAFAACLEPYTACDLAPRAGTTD

Experiments:
[1] = molecular target: ALPG-AF647 (human) (UniProt P10696); experiment: flow cytometry of engineered primary T cells; transgene+ by staining with ALPG-AF647 and MSLN-Bio / streptavidin-PE
[2] = molecular target: ALPG-AF647 (human) (UniProt P10696); experiment: flow cytometry, engineered primary T cells after manufacture (no ALPG priming), stained with ALPG-AF647 (PrimeR axis) and MSLN-Bio / streptavidin-PE (CAR axis)

B1: ALPG/P priming receptor of the AB-1013, AB-1014 and AB-1015 circuits (protein)
chain: DIQMTQSPSSLSASVGDRVTITCRASENIYSYVAWYQQKPGKAPKLLIYNAKSLASGVPSRFSGSGSGTDFTLTISSLQPEDFATYYCQHHYVSPWTFGGGTKLEIKGGGGSGGGGSGGGGSQVQLQESGPGLVKPSETLSLTCTVSGFSLTSYGVSWIRQPAGKGLEWIGVIWEDGSTNYHSALISRVTMSVDTSKNQFSLKLSSVTAADTAVYYCARPHYGSSYVGAMEYWGAGTTVTVSSATTTPAPRPPTPAPTIASQPLSLRPEACFMYVAAAAFVLLFFVGCGVLLSRKRRRQHGQLWFPEGFKVSEASKKKRREPLGEDSVGLKPLKNAMVSKLSQLQTELLAALLESGLSKEALLQALGEPGPYLLAGEGPLDKGESCGGGRGELAELPNGLGETRGSEDETDDDGEDFTPPILKELENLSPEEAAHQKAVVETLLQEDPWRVAKMVKSYLQQHNIPQREVVDTTGLNQSHLSQHLNKGTPMKTQKRAALYTWYVRKQREVAQQFTHAGQGGLIEEPTGDELPTKKGRRNRFKWGPASQQILFQAYERQKNPSKEERETLVEECNRAECIQRGVSPSQAQGLGSNLVTEVRVYNWFANRRKEEAFRHKLAMTCRDEFPTMVFPSGQISQASALAPAPPQVLPQAPAPAPAPAMVSALAQAPAPVPVLAPGPPQAVAPPAPKPTQAGEGTLSEALLQLQFDDEDLGALLGNSTDPAVFTDLASVDNSEFQQLLNQGIPVAPHTTEPMLMEYPEAITRLVTGAQRPPDPAPAPLGAPGLPNGLLSGDEDFSSIADMDFSALLSQISS
[1]
  binding: binds
[2]
  binding: binds
